Assay results taken from the supplement of paper PMC12595434, “Development of retinoid nuclear receptor pathway antagonists through targeting aldehyde dehydrogenase 1A3” (iScience, 2025).
This is one part of the list. The data scatter; read single values as rough.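 Many melting curves are irregular; where none melted, Tm was taken as 64 °C.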

The chains behind the UniProt entries cited, without tags or fusion partners. Where a name states a change or a piece, a line headed by the entry shows the natural chain unless it says otherwise.
UniProt A6NKF1: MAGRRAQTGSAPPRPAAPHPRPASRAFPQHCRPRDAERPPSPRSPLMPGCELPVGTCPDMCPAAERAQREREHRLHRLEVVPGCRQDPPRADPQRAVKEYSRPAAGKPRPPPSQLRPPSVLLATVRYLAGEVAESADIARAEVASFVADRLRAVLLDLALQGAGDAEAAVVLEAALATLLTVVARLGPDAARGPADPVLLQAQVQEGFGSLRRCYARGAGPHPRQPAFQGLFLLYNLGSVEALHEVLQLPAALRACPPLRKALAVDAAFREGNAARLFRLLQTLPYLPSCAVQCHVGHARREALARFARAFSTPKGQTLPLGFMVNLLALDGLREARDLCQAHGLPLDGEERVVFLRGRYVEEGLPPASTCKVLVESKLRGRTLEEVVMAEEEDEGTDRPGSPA
UniProt O00151: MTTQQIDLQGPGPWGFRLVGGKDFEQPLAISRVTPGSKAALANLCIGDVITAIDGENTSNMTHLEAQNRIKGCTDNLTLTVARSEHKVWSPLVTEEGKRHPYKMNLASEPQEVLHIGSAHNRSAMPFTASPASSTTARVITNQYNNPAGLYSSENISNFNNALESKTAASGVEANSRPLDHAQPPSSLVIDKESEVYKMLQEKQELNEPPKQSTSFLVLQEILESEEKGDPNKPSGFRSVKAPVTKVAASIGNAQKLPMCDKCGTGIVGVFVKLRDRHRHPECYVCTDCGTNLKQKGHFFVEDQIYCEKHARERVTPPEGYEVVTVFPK
UniProt O15372, whole entry: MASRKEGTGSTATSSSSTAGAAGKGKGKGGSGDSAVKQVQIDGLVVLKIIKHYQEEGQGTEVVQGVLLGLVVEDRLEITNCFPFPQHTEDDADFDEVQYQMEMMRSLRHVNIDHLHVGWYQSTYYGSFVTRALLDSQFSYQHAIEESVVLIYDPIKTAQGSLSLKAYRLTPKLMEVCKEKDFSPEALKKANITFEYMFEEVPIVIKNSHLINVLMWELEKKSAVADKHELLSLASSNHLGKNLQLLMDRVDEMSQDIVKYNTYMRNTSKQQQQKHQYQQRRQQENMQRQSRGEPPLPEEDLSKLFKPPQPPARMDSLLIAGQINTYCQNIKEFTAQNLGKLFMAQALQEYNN
UniProt O15066: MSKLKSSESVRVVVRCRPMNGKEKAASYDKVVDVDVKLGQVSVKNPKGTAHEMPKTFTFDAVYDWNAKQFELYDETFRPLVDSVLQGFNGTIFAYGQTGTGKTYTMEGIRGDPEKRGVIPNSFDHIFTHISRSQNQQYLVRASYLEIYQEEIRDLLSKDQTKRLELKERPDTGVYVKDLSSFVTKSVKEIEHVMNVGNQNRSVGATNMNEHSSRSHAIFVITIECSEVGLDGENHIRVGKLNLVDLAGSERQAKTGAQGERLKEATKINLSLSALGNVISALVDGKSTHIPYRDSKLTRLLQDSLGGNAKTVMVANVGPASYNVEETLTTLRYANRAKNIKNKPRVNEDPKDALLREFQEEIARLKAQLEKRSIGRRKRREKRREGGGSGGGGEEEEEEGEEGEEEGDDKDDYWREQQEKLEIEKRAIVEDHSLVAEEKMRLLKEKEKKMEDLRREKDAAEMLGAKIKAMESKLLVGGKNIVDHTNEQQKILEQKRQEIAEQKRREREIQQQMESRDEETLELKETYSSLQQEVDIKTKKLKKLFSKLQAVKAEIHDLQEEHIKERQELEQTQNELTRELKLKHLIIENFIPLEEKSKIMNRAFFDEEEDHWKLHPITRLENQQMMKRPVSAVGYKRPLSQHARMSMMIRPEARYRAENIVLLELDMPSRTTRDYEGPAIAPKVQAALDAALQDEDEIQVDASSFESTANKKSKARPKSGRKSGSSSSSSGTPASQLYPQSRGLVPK
UniProt O00468: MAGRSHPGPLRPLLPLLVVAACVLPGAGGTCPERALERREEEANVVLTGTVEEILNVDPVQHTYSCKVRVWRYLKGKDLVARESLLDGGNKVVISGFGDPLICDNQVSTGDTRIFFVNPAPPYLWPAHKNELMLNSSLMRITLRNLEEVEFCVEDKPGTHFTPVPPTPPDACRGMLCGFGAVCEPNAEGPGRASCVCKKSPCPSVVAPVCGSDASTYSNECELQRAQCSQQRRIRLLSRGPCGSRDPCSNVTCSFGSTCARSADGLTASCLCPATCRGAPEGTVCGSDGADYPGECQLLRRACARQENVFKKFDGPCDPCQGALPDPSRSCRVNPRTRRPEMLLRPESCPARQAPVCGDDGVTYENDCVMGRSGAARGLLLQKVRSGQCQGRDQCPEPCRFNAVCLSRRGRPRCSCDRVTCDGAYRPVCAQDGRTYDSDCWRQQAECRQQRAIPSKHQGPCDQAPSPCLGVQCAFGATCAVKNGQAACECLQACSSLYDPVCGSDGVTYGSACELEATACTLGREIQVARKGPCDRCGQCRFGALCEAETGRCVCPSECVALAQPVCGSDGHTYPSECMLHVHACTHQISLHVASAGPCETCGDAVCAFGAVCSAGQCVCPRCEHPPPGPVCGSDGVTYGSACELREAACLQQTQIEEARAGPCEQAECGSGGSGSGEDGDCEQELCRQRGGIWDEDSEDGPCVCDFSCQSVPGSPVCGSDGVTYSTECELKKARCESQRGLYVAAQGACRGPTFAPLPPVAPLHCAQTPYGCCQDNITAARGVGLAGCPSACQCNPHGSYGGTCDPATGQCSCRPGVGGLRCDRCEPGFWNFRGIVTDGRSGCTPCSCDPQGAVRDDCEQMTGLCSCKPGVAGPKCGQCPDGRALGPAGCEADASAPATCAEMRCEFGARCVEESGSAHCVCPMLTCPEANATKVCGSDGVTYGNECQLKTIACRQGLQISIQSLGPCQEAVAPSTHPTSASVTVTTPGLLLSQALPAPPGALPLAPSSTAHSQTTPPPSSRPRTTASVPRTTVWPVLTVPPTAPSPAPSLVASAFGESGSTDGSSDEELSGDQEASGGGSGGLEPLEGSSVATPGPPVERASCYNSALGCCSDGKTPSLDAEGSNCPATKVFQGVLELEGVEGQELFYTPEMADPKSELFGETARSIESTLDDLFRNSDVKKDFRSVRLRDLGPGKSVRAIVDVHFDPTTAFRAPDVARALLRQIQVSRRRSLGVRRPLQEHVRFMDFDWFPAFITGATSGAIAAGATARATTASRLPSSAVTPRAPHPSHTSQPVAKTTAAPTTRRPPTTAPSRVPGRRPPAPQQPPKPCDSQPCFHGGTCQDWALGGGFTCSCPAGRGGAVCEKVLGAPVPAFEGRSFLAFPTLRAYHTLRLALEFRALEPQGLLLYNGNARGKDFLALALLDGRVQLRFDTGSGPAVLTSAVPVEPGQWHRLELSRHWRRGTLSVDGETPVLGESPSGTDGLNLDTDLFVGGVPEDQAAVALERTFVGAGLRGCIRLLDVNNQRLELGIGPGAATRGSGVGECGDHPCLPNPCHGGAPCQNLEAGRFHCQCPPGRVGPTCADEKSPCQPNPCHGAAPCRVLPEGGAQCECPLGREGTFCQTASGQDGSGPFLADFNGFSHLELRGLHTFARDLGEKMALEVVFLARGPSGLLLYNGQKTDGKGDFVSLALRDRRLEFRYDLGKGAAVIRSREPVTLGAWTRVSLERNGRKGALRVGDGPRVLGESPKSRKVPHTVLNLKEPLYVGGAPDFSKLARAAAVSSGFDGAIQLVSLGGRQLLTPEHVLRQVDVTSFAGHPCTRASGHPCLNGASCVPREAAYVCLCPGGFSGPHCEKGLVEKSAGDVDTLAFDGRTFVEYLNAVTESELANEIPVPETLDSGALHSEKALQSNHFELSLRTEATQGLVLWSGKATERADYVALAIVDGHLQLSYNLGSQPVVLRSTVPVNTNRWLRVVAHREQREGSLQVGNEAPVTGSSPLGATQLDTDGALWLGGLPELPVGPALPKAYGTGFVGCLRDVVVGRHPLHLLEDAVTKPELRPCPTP
UniProt O15305: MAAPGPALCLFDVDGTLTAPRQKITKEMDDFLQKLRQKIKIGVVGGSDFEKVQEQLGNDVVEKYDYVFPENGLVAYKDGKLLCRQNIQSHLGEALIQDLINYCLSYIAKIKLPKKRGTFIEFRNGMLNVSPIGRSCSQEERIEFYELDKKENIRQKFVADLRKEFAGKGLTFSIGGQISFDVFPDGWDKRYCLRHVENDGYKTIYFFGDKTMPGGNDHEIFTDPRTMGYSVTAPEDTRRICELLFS
UniProt O43172: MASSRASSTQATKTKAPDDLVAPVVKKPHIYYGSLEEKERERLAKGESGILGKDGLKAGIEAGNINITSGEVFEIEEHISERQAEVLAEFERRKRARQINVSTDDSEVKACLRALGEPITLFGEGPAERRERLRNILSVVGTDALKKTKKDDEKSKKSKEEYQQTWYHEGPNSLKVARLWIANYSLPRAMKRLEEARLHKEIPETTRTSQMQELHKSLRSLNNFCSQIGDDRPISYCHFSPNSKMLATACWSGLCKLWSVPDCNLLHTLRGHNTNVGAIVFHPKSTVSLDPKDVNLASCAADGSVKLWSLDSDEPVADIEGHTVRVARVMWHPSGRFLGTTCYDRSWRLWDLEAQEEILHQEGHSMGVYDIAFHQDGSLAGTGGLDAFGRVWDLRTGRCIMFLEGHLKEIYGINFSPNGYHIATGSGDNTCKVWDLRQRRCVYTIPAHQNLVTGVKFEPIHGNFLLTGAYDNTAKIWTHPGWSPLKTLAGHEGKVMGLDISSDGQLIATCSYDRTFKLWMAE
UniProt O15116: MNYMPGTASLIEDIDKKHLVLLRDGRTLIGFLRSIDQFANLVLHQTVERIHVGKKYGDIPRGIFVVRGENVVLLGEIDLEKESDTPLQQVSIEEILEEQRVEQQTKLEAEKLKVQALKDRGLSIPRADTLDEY
UniProt O15355: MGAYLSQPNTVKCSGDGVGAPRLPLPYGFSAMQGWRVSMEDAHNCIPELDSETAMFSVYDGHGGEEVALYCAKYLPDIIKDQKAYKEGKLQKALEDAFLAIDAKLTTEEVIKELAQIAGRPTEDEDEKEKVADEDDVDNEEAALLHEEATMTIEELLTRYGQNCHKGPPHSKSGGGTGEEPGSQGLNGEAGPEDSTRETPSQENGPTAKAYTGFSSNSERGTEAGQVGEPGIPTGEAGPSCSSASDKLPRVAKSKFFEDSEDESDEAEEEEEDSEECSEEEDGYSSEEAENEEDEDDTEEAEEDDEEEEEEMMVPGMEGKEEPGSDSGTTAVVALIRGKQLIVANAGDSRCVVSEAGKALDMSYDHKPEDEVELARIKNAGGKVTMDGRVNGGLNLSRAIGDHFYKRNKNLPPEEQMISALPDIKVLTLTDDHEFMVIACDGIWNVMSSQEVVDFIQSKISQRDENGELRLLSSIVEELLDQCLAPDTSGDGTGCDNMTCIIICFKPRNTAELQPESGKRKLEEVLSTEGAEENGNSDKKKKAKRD
UniProt O00410: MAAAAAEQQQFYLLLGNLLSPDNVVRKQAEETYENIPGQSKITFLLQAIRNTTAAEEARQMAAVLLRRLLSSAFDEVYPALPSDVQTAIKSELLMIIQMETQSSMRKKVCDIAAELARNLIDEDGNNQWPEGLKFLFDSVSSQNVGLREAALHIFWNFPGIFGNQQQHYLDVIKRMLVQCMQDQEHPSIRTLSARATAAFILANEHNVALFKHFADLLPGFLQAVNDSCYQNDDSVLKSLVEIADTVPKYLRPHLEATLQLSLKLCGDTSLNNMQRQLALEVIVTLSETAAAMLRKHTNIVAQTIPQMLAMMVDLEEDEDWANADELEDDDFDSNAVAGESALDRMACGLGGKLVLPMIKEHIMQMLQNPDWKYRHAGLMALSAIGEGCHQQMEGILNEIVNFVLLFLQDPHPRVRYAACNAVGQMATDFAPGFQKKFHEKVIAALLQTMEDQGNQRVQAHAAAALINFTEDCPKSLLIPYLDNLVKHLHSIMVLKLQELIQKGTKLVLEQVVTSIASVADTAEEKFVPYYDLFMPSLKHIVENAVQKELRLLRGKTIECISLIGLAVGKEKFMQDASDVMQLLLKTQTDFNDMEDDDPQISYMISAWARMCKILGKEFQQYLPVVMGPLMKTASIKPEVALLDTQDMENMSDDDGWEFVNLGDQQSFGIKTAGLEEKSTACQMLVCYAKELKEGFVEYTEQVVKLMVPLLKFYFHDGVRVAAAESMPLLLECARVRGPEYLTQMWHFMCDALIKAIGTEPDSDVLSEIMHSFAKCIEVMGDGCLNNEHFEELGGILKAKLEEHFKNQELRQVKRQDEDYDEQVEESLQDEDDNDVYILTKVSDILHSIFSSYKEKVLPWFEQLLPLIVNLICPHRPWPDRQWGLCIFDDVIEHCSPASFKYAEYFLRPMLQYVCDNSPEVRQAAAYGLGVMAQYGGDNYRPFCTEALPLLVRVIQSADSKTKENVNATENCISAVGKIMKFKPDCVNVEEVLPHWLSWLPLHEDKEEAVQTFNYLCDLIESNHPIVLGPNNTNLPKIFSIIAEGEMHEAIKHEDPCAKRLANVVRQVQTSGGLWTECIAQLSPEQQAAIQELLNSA

Compound: CCc1cnccc1C(=O)Nc1cc2c(cc1F)NC(=O)CC2
Assay: melting temperature shift (DMSO Tm minus MBE1-treated Tm) in cellular thermal proteome profiling; higher = less thermal stabilization by MBE1 (negative = stabilized by MBE1)
Conditions: A375

Target	melting temperature shift (MBE1 concentration: 100 nM)	melting temperature shift (MBE1 concentration: 1 uM)
TNFRSF10B (UniProt O14763)	-3 °C	-1.41 °C
EIF3D (UniProt O15371)	-0.311 °C	-0.0235 °C
ARID1A (UniProt O14497)	-0.448 °C	-0.282 °C
SAC3D1 (UniProt A6NKF1)	0.405 °C	0.55 °C
UniProt O14939	0.678 °C	0.397 °C
PDLIM1 (UniProt O00151)	-4.12 °C	-4.01 °C
C5ORF51 (UniProt A6NDU8)	1.17 °C	0.837 °C
RCCD1 (UniProt A6NED2)	-0.262 °C	0.671 °C
CBX4 (UniProt O00257)	-0.448 °C	-0.0192 °C
EIF3H (UniProt O15372)	0.134 °C	-0.0244 °C
KIF3B (UniProt O15066)	0.989 °C	-0.0855 °C
AGRN (UniProt O00468)	0.335 °C	0.202 °C
PMM2 (UniProt O15305)	-0.59 °C	-0.241 °C
UniProt O14896	-0.827 °C	0 °C
COPE (UniProt O14579)	0.891 °C	-0.0305 °C
PRPF4 (UniProt O43172)	-0.428 °C	-0.805 °C
PJA2 (UniProt O43164)	-0.918 °C	0.525 °C
AP5Z1 (UniProt O43299)	2.42 °C	0.171 °C
UniProt L0R8F8	-0.47 °C	-0.159 °C
LSM1 (UniProt O15116)	-3.71 °C	-0.283 °C
PPM1G (UniProt O15355)	0.0448 °C	-0.0641 °C
UniProt O00584	1.24 °C	0.587 °C
IPO5 (UniProt O00410)	-0.516 °C	0.57 °C
UniProt O14775	0.507 °C	0.104 °C
UniProt O00463	-1.17 °C	1.3 °C

Exported with each value named: part of the list above
UniProt O14939
  melting temperature shift (MBE1 concentration: 100 nM): 0.678 °C
  melting temperature shift (MBE1 concentration: 1 uM): 0.397 °C
KIF3B (UniProt O15066)
  melting temperature shift (MBE1 concentration: 100 nM): 0.989 °C
  melting temperature shift (MBE1 concentration: 1 uM): -0.0855 °C
